According to paper PMC12700555:
Results are given in words; binding and its absence hold for the method and conditions named. Binding seen in cells or lysates may run through a third protein. These calls come from enrichment with a bait or labelling near it, and not all partners need be listed.

Amino acid sequences for entries named in this document (tags omitted).
UniProt O95235: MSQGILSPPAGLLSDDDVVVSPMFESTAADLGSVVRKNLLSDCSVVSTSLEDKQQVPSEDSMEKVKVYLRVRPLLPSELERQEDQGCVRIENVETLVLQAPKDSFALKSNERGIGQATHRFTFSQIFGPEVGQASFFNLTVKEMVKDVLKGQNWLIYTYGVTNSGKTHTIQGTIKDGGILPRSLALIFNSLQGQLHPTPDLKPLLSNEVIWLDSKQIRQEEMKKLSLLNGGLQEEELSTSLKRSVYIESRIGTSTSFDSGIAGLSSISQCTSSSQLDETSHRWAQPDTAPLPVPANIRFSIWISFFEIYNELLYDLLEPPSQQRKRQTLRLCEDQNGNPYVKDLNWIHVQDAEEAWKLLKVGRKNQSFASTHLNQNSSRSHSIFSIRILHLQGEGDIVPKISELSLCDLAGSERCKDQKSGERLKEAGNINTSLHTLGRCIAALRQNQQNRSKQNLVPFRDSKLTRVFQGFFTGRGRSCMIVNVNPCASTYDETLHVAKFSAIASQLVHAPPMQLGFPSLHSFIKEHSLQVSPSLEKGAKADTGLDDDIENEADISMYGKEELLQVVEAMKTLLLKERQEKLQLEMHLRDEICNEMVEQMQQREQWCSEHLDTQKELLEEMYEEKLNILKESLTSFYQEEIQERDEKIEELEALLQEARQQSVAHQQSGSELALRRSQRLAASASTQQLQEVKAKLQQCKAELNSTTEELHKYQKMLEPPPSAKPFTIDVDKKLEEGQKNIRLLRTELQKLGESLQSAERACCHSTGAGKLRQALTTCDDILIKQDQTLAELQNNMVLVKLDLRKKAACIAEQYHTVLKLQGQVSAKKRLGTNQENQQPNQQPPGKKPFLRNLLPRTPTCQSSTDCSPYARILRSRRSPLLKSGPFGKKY
UniProt P51532: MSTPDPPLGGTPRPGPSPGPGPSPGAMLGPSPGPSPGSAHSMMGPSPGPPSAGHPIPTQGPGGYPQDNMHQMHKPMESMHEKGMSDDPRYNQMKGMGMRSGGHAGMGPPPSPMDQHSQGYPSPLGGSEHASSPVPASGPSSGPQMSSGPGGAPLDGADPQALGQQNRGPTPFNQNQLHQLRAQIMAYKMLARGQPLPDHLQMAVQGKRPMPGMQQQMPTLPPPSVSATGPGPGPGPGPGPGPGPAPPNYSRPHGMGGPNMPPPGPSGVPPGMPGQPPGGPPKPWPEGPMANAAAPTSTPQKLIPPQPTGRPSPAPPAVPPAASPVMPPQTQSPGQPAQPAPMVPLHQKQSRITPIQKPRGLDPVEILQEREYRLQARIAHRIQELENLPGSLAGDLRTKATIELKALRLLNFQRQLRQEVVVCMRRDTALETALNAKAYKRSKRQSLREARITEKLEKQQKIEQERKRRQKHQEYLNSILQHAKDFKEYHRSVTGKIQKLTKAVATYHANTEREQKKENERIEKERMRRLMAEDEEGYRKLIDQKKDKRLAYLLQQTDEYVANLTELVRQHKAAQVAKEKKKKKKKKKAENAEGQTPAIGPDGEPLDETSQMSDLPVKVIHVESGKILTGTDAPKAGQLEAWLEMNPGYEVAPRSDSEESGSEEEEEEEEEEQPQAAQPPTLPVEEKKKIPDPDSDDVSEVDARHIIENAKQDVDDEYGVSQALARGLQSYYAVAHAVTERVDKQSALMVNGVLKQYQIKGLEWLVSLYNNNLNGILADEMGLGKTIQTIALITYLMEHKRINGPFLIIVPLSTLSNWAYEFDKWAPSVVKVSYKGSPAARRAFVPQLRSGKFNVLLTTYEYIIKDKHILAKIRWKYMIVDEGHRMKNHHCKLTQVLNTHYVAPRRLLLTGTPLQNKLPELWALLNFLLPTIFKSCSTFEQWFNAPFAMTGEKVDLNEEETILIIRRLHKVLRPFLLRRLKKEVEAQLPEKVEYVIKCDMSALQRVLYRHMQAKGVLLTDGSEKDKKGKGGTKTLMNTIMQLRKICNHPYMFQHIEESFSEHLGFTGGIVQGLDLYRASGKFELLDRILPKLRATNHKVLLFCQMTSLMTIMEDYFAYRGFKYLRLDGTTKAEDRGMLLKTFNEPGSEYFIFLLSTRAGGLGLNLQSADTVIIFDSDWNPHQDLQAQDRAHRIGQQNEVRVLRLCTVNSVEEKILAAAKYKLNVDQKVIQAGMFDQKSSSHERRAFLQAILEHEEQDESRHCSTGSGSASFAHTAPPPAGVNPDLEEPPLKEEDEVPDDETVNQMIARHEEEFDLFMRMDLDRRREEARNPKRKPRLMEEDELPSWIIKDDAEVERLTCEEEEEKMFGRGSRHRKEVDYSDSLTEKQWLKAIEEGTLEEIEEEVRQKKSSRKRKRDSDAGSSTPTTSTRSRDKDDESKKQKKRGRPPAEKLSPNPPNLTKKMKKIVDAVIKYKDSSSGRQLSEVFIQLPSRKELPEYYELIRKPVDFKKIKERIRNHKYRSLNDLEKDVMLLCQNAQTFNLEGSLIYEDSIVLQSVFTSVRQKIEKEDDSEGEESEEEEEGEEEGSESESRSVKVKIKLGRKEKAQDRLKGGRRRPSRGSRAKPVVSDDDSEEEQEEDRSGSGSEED

Molecular target: V5-tagged KIF20A (kinesin family member 20A) (UniProt O95235)
Assay: affinity purification with mass spectrometry; lysate of MDA-MB-231 cells with V5-tagged KIF20A on anti-V5 beads overnight at 4°C; 50 mM Tris-HCl pH 7.5, 150 mM NaCl, 0.5% NP-40, 10% glycerol; 5 washes; LC-MS/MS, label-free quantitation

endogenous SMARCA4 (from UniProt P51532 1-1647)
binding: binds
